Data: publication PMC8870324
These are yes or no findings as the source states them, for the method shown. Binding seen in cells or lysates may run through a third protein. These calls come from enrichment with a bait or labelling near it, and not all partners need be listed. Where a sequence is shown, tags or fusion partners need not be part of it.

T1: C-terminally miniTurbo-tagged SMPD4 (UniProt Q9NXE4)
T1 sequence: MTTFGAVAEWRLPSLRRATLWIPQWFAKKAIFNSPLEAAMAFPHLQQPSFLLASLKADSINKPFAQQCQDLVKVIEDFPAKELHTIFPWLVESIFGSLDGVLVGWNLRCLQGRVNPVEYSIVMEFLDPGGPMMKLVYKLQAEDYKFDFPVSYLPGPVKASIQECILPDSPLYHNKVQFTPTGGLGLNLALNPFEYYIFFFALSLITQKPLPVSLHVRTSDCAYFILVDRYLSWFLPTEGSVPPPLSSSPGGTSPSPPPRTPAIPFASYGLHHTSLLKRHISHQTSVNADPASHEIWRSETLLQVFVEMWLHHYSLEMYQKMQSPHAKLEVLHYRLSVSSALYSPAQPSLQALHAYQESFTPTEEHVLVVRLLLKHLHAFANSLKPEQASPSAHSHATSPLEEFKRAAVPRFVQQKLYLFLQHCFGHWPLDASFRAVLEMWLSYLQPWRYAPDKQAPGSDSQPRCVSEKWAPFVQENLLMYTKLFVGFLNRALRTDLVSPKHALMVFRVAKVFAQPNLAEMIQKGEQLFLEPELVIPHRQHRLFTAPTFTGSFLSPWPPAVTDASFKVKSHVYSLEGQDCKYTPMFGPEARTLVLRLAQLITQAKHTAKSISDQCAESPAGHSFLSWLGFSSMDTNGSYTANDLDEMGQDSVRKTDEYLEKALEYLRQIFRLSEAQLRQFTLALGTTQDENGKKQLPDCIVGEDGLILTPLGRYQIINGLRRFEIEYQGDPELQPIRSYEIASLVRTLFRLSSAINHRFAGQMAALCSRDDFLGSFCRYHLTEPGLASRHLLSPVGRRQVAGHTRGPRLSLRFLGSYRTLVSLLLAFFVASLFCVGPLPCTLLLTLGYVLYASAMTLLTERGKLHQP

B1: NDC1 (protein, UniProt Q9BTX1 1-674)
chain: MATAVSRPCAGRSRDILWRVLGWRIVASIVWSVLFLPICTTVFIIFSRIDLFHPIQWLSDSFSDLYSSYVIFYFLLLSVVIIIISIFNVEFYAVVPSIPCSRLALIGKIIHPQQLMHSFIHAAMGMVMAWCAAVITQGQYSFLVVPCTGTNSFGSPAAQTCLNEYHLFFLLTGAFMGYSYSLLYFVNNMNYLPFPIIQQYKFLRFRRSLLLLVKHSCVESLFLVRNFCILYYFLGYIPKAWISTAMNLHIDEQVHRPLDTVSGLLNLSLLYHVWLCGVFLLTTWYVSWILFKIYATEAHVFPVQPPFAEGSDECLPKVLNSNPPPIIKYLALQDLMLLSQYSPSRRQEVFSLSQPGGHPHNWTAISRECLNLLNGMTQKLILYQEAAATNGRVSSSYPVEPKKLNSPEETAFQTPKSSQMPRPSVPPLVKTSLFSSKLSTPDVVSPFGTPFGSSVMNRMAGIFDVNTCYGSPQSPQLIRRGPRLWTSASDQQMTEFSNPSPSTSISAEGKTMRQPSVIYSWIQNKREQIKNFLSKRVLIMYFFSKHPEASIQAVFSDAQMHIWALEGLSHLVAASFTEDRFGVVQTTLPAILNTLLTLQEAVDKYFKLPHASSKPPRISGSLVDTSYKTLRFAFRASLKTAIYRITTTFGEHLNAVQASAEHQKRLQQFLEFKE
B2: NUP85 (protein, UniProt Q9BW27 1-656)
chain: MEELDGEPTVTLIPGVNSKKNQMYFDWGPGEMLVCETSFNKKEKSEMVPSCPFIYIIRKDVDVYSQILRKLFNESHGIFLGLQRIDEELTGKSRKSQLVRVSKNYRSVIRACMEEMHQVAIAAKDPANGRQFSSQVSILSAMELIWNLCEILFIEVAPAGPLLLHLLDWVRLHVCEVDSLSADVLGSENPSKHDSFWNLVTILVLQGRLDEARQMLSKEADASPASAGICRIMGDLMRTMPILSPGNTQTLTELELKWQHWHEECERYLQDSTFATSPHLESLLKIMLGDEAALLEQKELLSNWYHFLVTRLLYSNPTVKPIDLHYYAQSSLDLFLGGESSPEPLDNILLAAFEFDIHQVIKECSIALSNWWFVAHLTDLLDHCKLLQSHNLYFGSNMREFLLLEYASGLFAHPSLWQLGVDYFDYCPELGRVSLELHIERIPLNTEQKALKVLRICEQRQMTEQVRSICKILAMKAVRNNRLGSALSWSIRAKDAAFATLVSDRFLRDYCERGCFSDLDLIDNLGPAMMLSDRLTFLGKYREFHRMYGEKRFADAASLLLSLMTSRIAPRSFWMTLLTDALPLLEQKQVIFSAEQTYELMRCLEDLTSRRPVHGESDTEQLQDDDIETTKVEMLRLSLARNLARAIIREGSLEGS
B3: NUP133 (protein, UniProt Q8WUM0 1-1156)
chain: MFPAAPSPRTPGTGSRRGPLAGLGPGSTPRTASRKGLPLGSAVSSPVLFSPVGRRSSLSSRGTPTRMFPHHSITESVNYDVKTFGSSLPVKVMEALTLAEVDDQLTINIDEGGWACLVCKEKLIIWKIALSPITKLSVCKELQLPPSDFHWSADLVALSYSSPSGEAHSTQAVAVMVATREGSIRYWPSLAGEDTYTEAFVDSGGDKTYSFLTAVQGGSFILSSSGSQLIRLIPESSGKIHQHILPQGQGMLSGIGRKVSSLFGILSPSSDLTLSSVLWDRERSSFYSLTSSNISKWELDDSSEKHAYSWDINRALKENITDAIWGSESNYEAIKEGVNIRYLDLKQNCDGLVILAAAWHSADNPCLIYYSLITIEDNGCQMSDAVTVEVTQYNPPFQSEDLILCQLTVPNFSNQTAYLYNESAVYVCSTGTGKFSLPQEKIVFNAQGDSVLGAGACGGVPIIFSRNSGLVSITSRENVSILAEDLEGSLASSVAGPNSESMIFETTTKNETIAQEDKIKLLKAAFLQYCRKDLGHAQMVVDELFSSHSDLDSDSELDRAVTQISVDLMDDYPASDPRWAESVPEEAPGFSNTSLIILHQLEDKMKAHSFLMDFIHQVGLFGRLGSFPVRGTPMATRLLLCEHAEKLSAAIVLKNHHSRLSDLVNTAILIALNKREYEIPSNLTPADVFFREVSQVDTICECLLEHEEQVLRDAPMDSIEWAEVVINVNNILKDMLQAASHYRQNRNSLYRREESLEKEPEYVPWTATSGPGGIRTVIIRQHEIVLKVAYPQADSNLRNIVTEQLVALIDCFLDGYVSQLKSVDKSSNRERYDNLEMEYLQKRSDLLSPLLSLGQYLWAASLAEKYCDFDILVQMCEQTDNQSRLQRYMTQFADQNFSDFLFRWYLEKGKRGKLLSQPISQHGQLANFLQAHEHLSWLHEINSQELEKAHATLLGLANMETRYFAKKKTLLGLSKLAALASDFSEDMLQEKIEEMAEQERFLLHQETLPEQLLAEKQLNLSAMPVLTAPQLIGLYICEENRRANEYDFKKALDLLEYIDEEEDININDLKLEILCKALQRDNWSSSDGKDDPIEVSKDSIFVKILQKLLKDGIQLSEYLPEVKDLLQADQLGSLKSNPYFEFVLKANYEYYVQGQI
B4: ALADIN (protein, UniProt Q9NRG9 1-546)
chain: MCSLGLFPPPPPRGQVTLYEHNNELVTGSSYESPPPDFRGQWINLPVLQLTKDPLKTPGRLDHGTRTAFIHHREQVWKRCINIWRDVGLFGVLNEIANSEEEVFEWVKTASGWALALCRWASSLHGSLFPHLSLRSEDLIAEFAQVTNWSSCCLRVFAWHPHTNKFAVALLDDSVRVYNASSTIVPSLKHRLQRNVASLAWKPLSASVLAVACQSCILIWTLDPTSLSTRPSSGCAQVLSHPGHTPVTSLAWAPSGGRLLSASPVDAAIRVWDVSTETCVPLPWFRGGGVTNLLWSPDGSKILATTPSAVFRVWEAQMWTCERWPTLSGRCQTGCWSPDGSRLLFTVLGEPLIYSLSFPERCGEGKGCVGGAKSATIVADLSETTIQTPDGEERLGGEAHSMVWDPSGERLAVLMKGKPRVQDGKPVILLFRTRNSPVFELLPCGIIQGEPGAQPQLITFHPSFNKGALLSVGWSTGRIAHIPLYFVNAQFPRFSPVLGRAQEPPAGGGGSIHDLPLFTETSPTSAPWDPLPGPPPVLPHSPHSHL
B5: NUP155 (protein, UniProt O75694 1-1391)
chain: MPSSLLGAAMPASTSAAALQEALENAGRLIDRQLQEDRMYPDLSELLMVSAPNNPTVSGMSDMDYPLQGPGLLSVPNLPEISSIRRVPLPPELVEQFGHMQCNCMMGVFPPISRAWLTIDSDIFMWNYEDGGDLAYFDGLSETILAVGLVKPKAGIFQPHVRHLLVLATPVDIVILGLSYANLQTGSGVLNDSLSGGMQLLPDPLYSLPTDNTYLLTITSTDNGRIFLAGKDGCLYEVAYQAEAGWFSQRCRKINHSKSSLSFLVPSLLQFTFSEDDPILQIAIDNSRNILYTRSEKGVIQVYDLGQDGQGMSRVASVSQNAIVSAAGNIARTIDRSVFKPIVQIAVIENSESLDCQLLAVTHAGVRLYFSTCPFRQPLARPNTLTLVHVRLPPGFSASSTVEKPSKVHRALYSKGILLMAASENEDNDILWCVNHDTFPFQKPMMETQMTAGVDGHSWALSAIDELKVDKIITPLNKDHIPITDSPVVVQQHMLPPKKFVLLSAQGSLMFHKLRPVDQLRHLLVSNVGGDGEEIERFFKLHQEDQACATCLILACSTAACDREVSAWATRAFFRYGGEAQMRFPTTLPPPSNVGPILGSPVYSSSPVPSGSPYPNPSFLGTPSHGIQPPAMSTPVCALGNPATQATNMSCVTGPEIVYSGKHNGICIYFSRIMGNIWDASLVVERIFKSGNREITAIESSVPCQLLESVLQELKGLQEFLDRNSQFAGGPLGNPNTTAKVQQRLIGFMRPENGNPQQMQQELQRKFHEAQLSEKISLQAIQQLVRKSYQALALWKLLCEHQFTIIVAELQKELQEQLKITTFKDLVIRDKELTGALIASLINCYIRDNAAVDGISLHLQDICPLLYSTDDAICSKANELLQRSRQVQNKTEKERMLRESLKEYQKISNQVDLSNVCAQYRQVRFYEGVVELSLTAAEKKDPQGLGLHFYKHGEPEEDIVGLQAFQERLNSYKCITDTLQELVNQSKAAPQSPSVPKKPGPPVLSSDPNMLSNEEAGHHFEQMLKLSQRSKDELFSIALYNWLIQVDLADKLLQVASPFLEPHLVRMAKVDQNRVRYMDLLWRYYEKNRSFSNAARVLSRLADMHSTEISLQQRLEYIARAILSAKSSTAISSIAADGEFLHELEEKMEVARIQLQIQETLQRQYSHHSSVQDAVSQLDSELMDITKLYGEFADPFKLAECKLAIIHCAGYSDPILVQTLWQDIIEKELSDSVTLSSSDRMHALSLKIVLLGKIYAGTPRFFPLDFIVQFLEQQVCTLNWDVGFVIQTMNEIGVPLPRLLEVYDQLFKSRDPFWNRMKKPLHLLDCIHVLLIRYVENPSQVLNCERRRFTNLCLDAVCGYLVELQSMSSSVAVQAITGNFKSLQAKLERLH

Each binder was assayed against T1, C-terminally miniTurbo-tagged SMPD4 (assay: proximity labelling; miniTurbo fusion baits transfected in HEK293T; 500 µM biotin for 30 min, 24 h after transfection; RIPA lysis, pull-down on streptavidin magnetic beads, on-bead trypsin digestion, nLC-MS/MS; enrichment by emPAI score against the NLS-miniTurbo control; two independent experiments).

binding	Binder
binds	B1
binds	B2
binds	B3
binds	B4
binds	B5
